Results on two substances are retold here after PMC8375240.

Amino acid sequences for entries named in this document (tags omitted). A change or cut given only in a name is not applied to a line headed by its entry.
UniProt O15231: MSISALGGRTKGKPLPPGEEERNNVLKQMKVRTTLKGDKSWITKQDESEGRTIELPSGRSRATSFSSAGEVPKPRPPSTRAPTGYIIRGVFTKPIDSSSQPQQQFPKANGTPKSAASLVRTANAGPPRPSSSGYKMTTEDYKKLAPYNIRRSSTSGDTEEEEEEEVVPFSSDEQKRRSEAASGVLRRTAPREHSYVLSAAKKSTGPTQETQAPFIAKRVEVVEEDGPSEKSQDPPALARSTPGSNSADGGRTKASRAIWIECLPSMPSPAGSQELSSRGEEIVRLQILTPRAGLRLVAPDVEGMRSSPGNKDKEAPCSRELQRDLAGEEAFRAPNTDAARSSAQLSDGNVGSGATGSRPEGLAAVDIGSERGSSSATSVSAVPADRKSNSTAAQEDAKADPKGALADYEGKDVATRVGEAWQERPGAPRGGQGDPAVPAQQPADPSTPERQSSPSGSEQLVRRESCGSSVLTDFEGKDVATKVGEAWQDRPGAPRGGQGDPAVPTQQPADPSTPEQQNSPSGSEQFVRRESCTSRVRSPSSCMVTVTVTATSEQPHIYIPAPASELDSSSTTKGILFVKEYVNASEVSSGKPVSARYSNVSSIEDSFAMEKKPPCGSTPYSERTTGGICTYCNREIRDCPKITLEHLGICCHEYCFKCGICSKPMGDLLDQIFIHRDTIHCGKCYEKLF
UniProt Q05086: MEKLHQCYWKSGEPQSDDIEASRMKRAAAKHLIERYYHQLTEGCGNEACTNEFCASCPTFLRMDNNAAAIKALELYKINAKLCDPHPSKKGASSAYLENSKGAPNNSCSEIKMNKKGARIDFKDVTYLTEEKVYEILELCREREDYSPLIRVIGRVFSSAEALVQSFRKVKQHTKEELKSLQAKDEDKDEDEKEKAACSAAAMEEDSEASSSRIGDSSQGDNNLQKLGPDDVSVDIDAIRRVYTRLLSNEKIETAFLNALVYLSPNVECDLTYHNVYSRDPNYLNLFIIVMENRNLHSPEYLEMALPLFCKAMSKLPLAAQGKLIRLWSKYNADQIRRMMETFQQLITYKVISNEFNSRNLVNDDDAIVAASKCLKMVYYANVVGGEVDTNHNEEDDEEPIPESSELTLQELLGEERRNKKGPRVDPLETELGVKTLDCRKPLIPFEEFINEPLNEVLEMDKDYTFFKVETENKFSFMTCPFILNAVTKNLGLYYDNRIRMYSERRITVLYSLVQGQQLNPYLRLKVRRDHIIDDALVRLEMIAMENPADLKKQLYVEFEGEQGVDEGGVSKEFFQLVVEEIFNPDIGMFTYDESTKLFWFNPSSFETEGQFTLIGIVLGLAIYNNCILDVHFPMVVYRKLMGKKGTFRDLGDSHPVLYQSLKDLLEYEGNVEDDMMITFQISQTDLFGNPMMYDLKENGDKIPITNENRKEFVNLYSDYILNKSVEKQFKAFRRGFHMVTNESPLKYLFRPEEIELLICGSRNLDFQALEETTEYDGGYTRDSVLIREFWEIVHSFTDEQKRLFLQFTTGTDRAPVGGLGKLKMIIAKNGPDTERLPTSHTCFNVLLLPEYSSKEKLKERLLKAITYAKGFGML

No constants are given. Whether binding was seen depends on the method and setting. In cells and extracts the contact can be indirect. Some results given as binding are weak or reduced against the parent protein; the word gives no strength.

The target of experiment [1] is Zinc finger protein 185 (human (endogenous in Eca-109 and TE-1)) (UniProt O15231). The experiment is described as follows: co-IP; whole-cell lysate (RIPA buffer) of Eca-109 and TE-1 cells, nondenaturing condition, immunoprecipitated with anti-UBE3A or anti-ZNF185 and Protein G agarose, IgG as control; Western blot.
For experiment [2], the target named is Ubiquitin-protein ligase E3A (human (endogenous in Eca-109 and TE-1)) (UniProt Q05086). The experiment is described as follows: proximity ligation; Duolink in situ fluorescence on fixed Eca-109 cells with UBE3A and ZNF185 primary antibodies, confocal microscopy.
For experiment [3] the target is unchanged. The experiment in a line: co-IP; whole-cell lysate (RIPA buffer) of Eca-109 and TE-1 cells, nondenaturing condition, immunoprecipitated with anti-UBE3A or anti-ZNF185 and Protein G agarose, IgG as control; Western blot. For orientation: Immunoblotting shows a protein as a band on a membrane.

Regarding “Ubiquitin-protein ligase E3A (from UniProt Q05086 1-875) (enzyme)”, in experiment [1], the binding result is listed as “binds”. Consider “Zinc finger protein 185 (from UniProt O15231 1-689)”, for which the binding result in experiment [2] and in experiment [3] was “binds” throughout.
